# Test results reported in patent publication US20230146939A1, “TREATMENT FOR HUMAN CORONAVIRUS INFECTION” (THE ADMINISTRATORS OF THE TULANE EDUCATIONAL FUND, priority 2020, published 2023).
# By UniProt entry, the sequences of proteins in these tests, tags left out. Residues count along the entry.
# UniProt P08648, 42-995 limits assumed, stated change not applied: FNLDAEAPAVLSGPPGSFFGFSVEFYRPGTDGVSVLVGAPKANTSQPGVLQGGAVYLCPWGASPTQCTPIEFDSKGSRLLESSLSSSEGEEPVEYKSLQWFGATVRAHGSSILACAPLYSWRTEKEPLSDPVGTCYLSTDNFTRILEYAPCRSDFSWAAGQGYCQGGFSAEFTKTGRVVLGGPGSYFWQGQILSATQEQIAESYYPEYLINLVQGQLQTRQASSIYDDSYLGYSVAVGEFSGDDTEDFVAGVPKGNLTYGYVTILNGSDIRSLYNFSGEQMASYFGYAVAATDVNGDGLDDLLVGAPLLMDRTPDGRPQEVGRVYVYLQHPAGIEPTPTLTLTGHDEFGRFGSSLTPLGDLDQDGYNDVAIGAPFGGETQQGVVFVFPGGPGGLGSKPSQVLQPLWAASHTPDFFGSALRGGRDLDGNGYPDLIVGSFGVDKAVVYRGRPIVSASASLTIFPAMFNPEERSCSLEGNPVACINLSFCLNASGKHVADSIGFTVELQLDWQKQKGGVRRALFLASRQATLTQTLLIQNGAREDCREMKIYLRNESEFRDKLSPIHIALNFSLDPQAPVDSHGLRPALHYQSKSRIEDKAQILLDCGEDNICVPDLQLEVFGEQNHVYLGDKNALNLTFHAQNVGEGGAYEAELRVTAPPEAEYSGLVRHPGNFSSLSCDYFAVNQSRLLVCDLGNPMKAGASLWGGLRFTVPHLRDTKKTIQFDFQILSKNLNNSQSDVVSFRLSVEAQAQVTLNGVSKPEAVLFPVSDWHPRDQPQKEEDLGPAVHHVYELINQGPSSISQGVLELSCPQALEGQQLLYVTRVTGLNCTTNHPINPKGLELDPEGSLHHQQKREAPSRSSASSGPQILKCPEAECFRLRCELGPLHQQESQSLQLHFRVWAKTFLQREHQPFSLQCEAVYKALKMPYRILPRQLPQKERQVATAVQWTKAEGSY
# Not every detail of the peptide structures is certain; ends, links or a residue may be inferred.
# Molecular target: T1, α5β1 / SARS-CoV-2 spike RBD South Africa variant (Homo sapiens, UniProt P05556+P08648, DEL729-798)
# T1 construct: purchased BEI Resources, NIAID, NIH NR-54005; host or cells: HEK293
# Format: binding
# Conditions: ELISA, 1 mM manganese chloride
substance,measurement,value
"Ac-PHSCN-NH2 [ATN-161, Ac-PHSCN-NH2]","concentration of maximum effect, SA variant",80 nM
